This is one part of the list. Many values rest on one well or one pass, so single values are uncertain.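 The apoptosis fraction was the count of cleaved-PARP antibody-stained nuclei relative to all DNA-stained nuclei, imaged in 1,536-well plates. Screening doses were set so most cells survived, and baseline and induced cleaved-PARP levels vary greatly across cell lines.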
Key:
Experiment in all cases: cleaved PARP positive nuclei fraction relative to DMSO control; melanoma cells; higher = more apoptosis
Details in all cases: library dose: low library concentration; 72 h
MZ2-MEL = tested on: MZ2-MEL
MeWo = tested on: MeWo
RPMI7951 = tested on: RPMI7951
RVH-421 = tested on: RVH-421
SkMel28 = tested on: SkMel28
SkMel30 = tested on: SkMel30
SkMel5 = tested on: SkMel5
UACC257 = tested on: UACC257
UACC62 = tested on: UACC62

Structure (SMILES)	cleaved PARP positive nuclei fraction (MZ2-MEL) [%]	cleaved PARP positive nuclei fraction (MeWo) [%]	cleaved PARP positive nuclei fraction (RPMI7951) [%]	cleaved PARP positive nuclei fraction (RVH-421) [%]	cleaved PARP positive nuclei fraction (SkMel28) [%]	cleaved PARP positive nuclei fraction (SkMel30) [%]	cleaved PARP positive nuclei fraction (SkMel5) [%]	cleaved PARP positive nuclei fraction (UACC257) [%]	cleaved PARP positive nuclei fraction (UACC62) [%]
N#Cc1c(O)c2c(-c3ccc(-c4ccccc4O)cc3)csc2[nH]c1=O + COc1ccc(-c2ccc3c(N4CCOCC4)nc(N4C[C@@H](C)O[C@@H](C)C4)nc3n2)cc1CO [KU0063794] (first compound 2 µM, partner dose 0.02 µM)	233	55	36.9	98.9	140	108	57.5	98	37.4
N#Cc1c(O)c2c(-c3ccc(-c4ccccc4O)cc3)csc2[nH]c1=O + COc1cc2ncnc(Nc3ccc(Oc4ccccc4)cc3)c2cc1OC [SrcI1] (first compound 2 µM, partner dose 2 µM)	62.5	77.8	60	87.3	48.7	55.2	110	30.4	77.7
COc1ccc(-c2ccc3c(N4CCOCC4)nc(N4C[C@@H](C)O[C@@H](C)C4)nc3n2)cc1CO + CCN(CC)CCCCNc1ncc2cc(-c3cc(OC)cc(OC)c3)c(NC(=O)NC(C)(C)C)nc2n1 [PD173074] (first compound 0.02 µM, partner dose 0.1 µM)	72.1	108	88.8	112	121	73.8	80.9	109	173
NCC(=O)Nc1ccc(-n2nc(C(F)(F)F)cc2-c2ccc3c(ccc4ccccc43)c2)cc1 + N#Cc1c(O)c2c(-c3ccc(-c4ccccc4O)cc3)csc2[nH]c1=O [A769662] (first compound 1 µM, partner dose 2 µM)	50.8	242	85.1	106	78.9	874	153	154	308
NCC(=O)Nc1ccc(-n2nc(C(F)(F)F)cc2-c2ccc3c(ccc4ccccc43)c2)cc1 + CCCCCCCCCCCC1=C(O)C(=O)C=C(O)C1=O [Embelin] (first compound 1 µM, partner dose 1.2 µM)	182	102	106	156	88.5	64.2	57.2	35	39.6
Oc1nc(-c2ccc(C(F)(F)F)cc2)nc2c1CSCC2 + CCCCCCCCCCCC1=C(O)C(=O)C=C(O)C1=O [Embelin] (first compound 2 µM, partner dose 1.2 µM)	155	47	48.3	117	28.5	55.7	40.7	86	35.3
N#Cc1c(O)c2c(-c3ccc(-c4ccccc4O)cc3)csc2[nH]c1=O + Cc1cc([N+](=O)[O-])ccc1NS(=O)(=O)c1cc(Cl)ccc1Cl [FH535] (first compound 2 µM, partner dose 1 µM)	117	169	38.7	89.5	124	41	62.1	130	58.5
COc1ccc(-c2ccc3c(N4CCOCC4)nc(N4C[C@@H](C)O[C@@H](C)C4)nc3n2)cc1CO + Oc1cc(-c2nc(-c3ccccc3)[nH]c2-c2ccncc2)ccc1Cl [L779450] (first compound 0.02 µM, partner dose 0.2 µM)	135	53.8	36.5	67.3	166	41.7	80.9	222	84.3
Cc1cc([N+](=O)[O-])ccc1NS(=O)(=O)c1cc(Cl)ccc1Cl + O=c1cc(-c2cccc3c2Sc2ccccc2S3)oc(N2CCOCC2)c1 [KU55933] (first compound 1 µM, partner dose 1 µM)	101	58.5	80.6	56.7	270	539	186	151	113
CN(C)S(=O)(=O)c1ccc2c(c1)/C(=C/c1cc3c([nH]1)CCCC3)C(=O)N2 + Cn1cc(/C=C2\C(=O)Nc3cccnc32)c2ccccc21 [GW441756] (first compound 0.4 µM, partner dose 0.4 µM)	109	32.7	78.6	28.6	173	30.3	99.1	152	86.5
O=C(Nc1ccccc1)c1cc([N+](=O)[O-])ccc1Cl + Oc1cc(-c2nc(-c3ccccc3)[nH]c2-c2ccncc2)ccc1Cl [L779450] (first compound 2 µM, partner dose 0.2 µM)	108	29.5	76.5	43.7	65.3	47.2	50.6	126	94.5
N#Cc1c(O)c2c(-c3ccc(-c4ccccc4O)cc3)csc2[nH]c1=O + Oc1nc(-c2ccc(C(F)(F)F)cc2)nc2c1CSCC2 [XAV939] (first compound 2 µM, partner dose 2 µM)	76.2	24.7	43	95.5	94.4	36.2	31.8	115	33.2
COc1ccc2c(c1)CCC1C2CCC2(C)C(NCCCCCCN3C(=O)C=CC3=O)CCC12 (configuration not stated) + O=C(O)C(=O)Nc1sc2c(c1C(=O)O)CCNC2 [TCS401] (first compound 0.4 µM, partner dose 1.66667 µM)	115	113	139	64.3	37.4	122	102	65.8	82.9
O=C(Nc1ccccc1)c1cc([N+](=O)[O-])ccc1Cl + c1cc(-c2cnn3cc(-c4ccc(OCCN5CCCCC5)cc4)cnc23)ccn1 [Dorsomorphin] (first compound 2 µM, partner dose 0.4 µM)	149	60.4	187	41.4	108	24.5	94	80.4	43.4
O=C(O)c1ccc(-c2c[nH]c3ncc(-c4ccccc4)cc23)cc1C1CCCC1 + c1cc(-c2cnn3cc(-c4ccc(OCCN5CCCCC5)cc4)cnc23)ccn1 [Dorsomorphin] (first compound 0.16 µM, partner dose 0.4 µM)	90.7	30.4	82.8	58.7	81.9	49.6	60.6	124	37.3
COc1ccc(COc2ccc(Cc3cnc(N)nc3N)cc2OC)cc1 + O=S(=O)(c1ccccc1)N(CC(F)(F)F)c1ccc(C(O)(C(F)(F)F)C(F)(F)F)cc1 [T0901317] (first compound 1 µM, partner dose 1.4 µM)	103	56.5	74.4	87.1	144	58.7	61.3	82.4	106
CN(NC(=O)CC(=O)NN(C)C(=S)c1ccccc1)C(=S)c1ccccc1 + CCN(CC)CCCCNc1ncc2cc(-c3cc(OC)cc(OC)c3)c(NC(=O)NC(C)(C)C)nc2n1 [PD173074] (first compound 0.006 µM, partner dose 0.1 µM)	57.6	397	77.3	64	203	52.1	357	201	88.4
O=C(O)c1ccc(-c2c[nH]c3ncc(-c4ccccc4)cc23)cc1C1CCCC1 + Oc1cc(-c2nc(-c3ccccc3)[nH]c2-c2ccncc2)ccc1Cl [L779450] (first compound 0.16 µM, partner dose 0.2 µM)	117	34.9	87.4	73.9	208	57.4	61.6	123	113
CN(NC(=O)CC(=O)NN(C)C(=S)c1ccccc1)C(=S)c1ccccc1 + O=C1NC(=O)/C(=C/c2ccc(-c3ccc(F)cc3O)o2)S1 [AS252424] (first compound 0.006 µM, partner dose 1 µM)	169	156	84.5	77.5	167	26	98.1	135	336
COc1ccc(COc2ccc(Cc3cnc(N)nc3N)cc2OC)cc1 + c1cc(-c2cnn3cc(-c4ccc(OCCN5CCCCC5)cc4)cnc23)ccn1 [Dorsomorphin] (first compound 1 µM, partner dose 0.4 µM)	90.3	93.8	91.1	84.3	175	28.9	67	131	34.9
CN(C)S(=O)(=O)c1ccc2c(c1)/C(=C/c1cc3c([nH]1)CCCC3)C(=O)N2 + N#Cc1c(O)c2c(-c3ccc(-c4ccccc4O)cc3)csc2[nH]c1=O [A769662] (first compound 0.4 µM, partner dose 2 µM)	124	119	80.9	75.2	54.9	38.3	82.2	70.8	75.1
Oc1cc(-c2nc(-c3ccccc3)[nH]c2-c2ccncc2)ccc1Cl + O=c1cc(-c2cccc3c2Sc2ccccc2S3)oc(N2CCOCC2)c1 [KU55933] (first compound 0.2 µM, partner dose 1 µM)	118	52.6	38.4	48.7	23.8	54.3	51.3	27.8	164
O=C(O)c1ccc(-c2c[nH]c3ncc(-c4ccccc4)cc23)cc1C1CCCC1 + Cc1cc([N+](=O)[O-])ccc1NS(=O)(=O)c1cc(Cl)ccc1Cl [FH535] (first compound 0.16 µM, partner dose 1 µM)	96.4	174	76.6	92.6	138	101	63.4	128	131

Record cards, from the list above. Values in the order: cleaved PARP positive nuclei fraction (MZ2-MEL) [%] | cleaved PARP positive nuclei fraction (MeWo) [%] | cleaved PARP positive nuclei fraction (RPMI7951) [%] | cleaved PARP positive nuclei fraction (RVH-421) [%] | cleaved PARP positive nuclei fraction (SkMel28) [%] | cleaved PARP positive nuclei fraction (SkMel30) [%] | cleaved PARP positive nuclei fraction (SkMel5) [%] | cleaved PARP positive nuclei fraction (UACC257) [%] | cleaved PARP positive nuclei fraction (UACC62) [%]
CN(C)S(=O)(=O)c1ccc2c(c1)/C(=C/c1cc3c([nH]1)CCCC3)C(=O)N2 + Cn1cc(/C=C2\C(=O)Nc3cccnc32)c2ccccc21 [GW441756] (first compound 0.4 µM, partner dose 0.4 µM) in the list: 109 | 32.7 | 78.6 | 28.6 | 173 | 30.3 | 99.1 | 152 | 86.5
Oc1nc(-c2ccc(C(F)(F)F)cc2)nc2c1CSCC2 + CCCCCCCCCCCC1=C(O)C(=O)C=C(O)C1=O [Embelin] (first compound 2 µM, partner dose 1.2 µM) in the list: 155 | 47 | 48.3 | 117 | 28.5 | 55.7 | 40.7 | 86 | 35.3

Source: the supplement of paper PMC4604168 (melanoma cell lines)
